Here are results for 3 sequences from patent US20200172896, “EVOLUTION OF BIOACTIVE SEQUENCE-DEFINED SYNTHETIC POLYMERS USING DNA-TEMPLATED POLYMERIZATION” (President and Fellows of Harvard College, published 2020).

Chains of the proteins cited; added tags and fusions are not shown. A line that says so, or that is headed by a name, gives the form on record, which may keep a tag or linker.
PCSK9 (Homo sapiens), one chain, as listed by the source, chain 1 of 2: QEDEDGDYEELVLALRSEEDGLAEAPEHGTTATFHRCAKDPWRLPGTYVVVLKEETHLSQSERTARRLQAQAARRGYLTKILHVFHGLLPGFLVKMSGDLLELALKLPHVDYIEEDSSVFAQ
PCSK9 (Homo sapiens), one chain, as listed by the source, chain 2 of 2: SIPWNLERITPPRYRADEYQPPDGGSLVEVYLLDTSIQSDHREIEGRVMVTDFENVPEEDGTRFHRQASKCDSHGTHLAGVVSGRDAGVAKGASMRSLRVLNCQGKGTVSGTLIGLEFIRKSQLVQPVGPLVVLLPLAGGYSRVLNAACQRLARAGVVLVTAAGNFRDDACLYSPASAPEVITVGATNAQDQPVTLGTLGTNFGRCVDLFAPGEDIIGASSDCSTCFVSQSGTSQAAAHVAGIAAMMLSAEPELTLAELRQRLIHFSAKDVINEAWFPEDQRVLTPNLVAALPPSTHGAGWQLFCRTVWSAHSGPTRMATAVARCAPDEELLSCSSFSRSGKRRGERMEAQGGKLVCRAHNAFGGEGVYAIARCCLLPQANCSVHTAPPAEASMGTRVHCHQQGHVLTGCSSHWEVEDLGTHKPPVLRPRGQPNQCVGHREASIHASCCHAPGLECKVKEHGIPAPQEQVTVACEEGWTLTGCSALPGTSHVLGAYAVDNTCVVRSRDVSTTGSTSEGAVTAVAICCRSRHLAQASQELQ

For part of these data: No signal at the amounts used counts as a negative.

The Kd is a measure of binding affinity in units of concentration.

Data set [1] relates to PCSK9 (Homo sapiens). Kind of data set: pull-down. The note with it: unfunctionalized DNA, no evident binding; purified recombinant protein; protein details: ACROBiosystems PC9-H5223; single-stranded DNA; variant of PCSK9-A5.
Data set [2] deals with PCSK9 (Homo sapiens). As to the kind of experiment: SPR. The note with it: HFNAP side chains as PCSK9-Evo5; no binding up to 300 nM PCSK9; purified recombinant protein; protein details: ACROBiosystems PC9-H5223; label: 3' iSp18-dual biotin; single-stranded DNA; variant of PCSK9-Evo5.
Data set [3] concerns PCSK9 (Homo sapiens). As to the kind of experiment: inhibition of the protein. Particulars: 3' idT, no side chains; unfunctionalized DNA, no inhibition of PCSK9-LDLR binding up to 200 nM; purified recombinant protein; protein details: ACROBiosystems PC9-H5223; single-stranded DNA; variant of PCSK9-Evo5-syn.

For “CGAATCAGATTGGACCAGCCACGTTACTGATTCTTCTACCGTTTTTGCCCCCGGCACCTTCTGGAGTCCAGATGTAGGTAG [PCSK9A5-DNA]”, in the data set on PCSK9 (Homo sapiens) [1], the binding result is reported as “no binding”.
Turning to “TGCTACCGTTGTTTACCCTGCCACCTTCTGGAGTCCAGATGTAG [PCSK9-EvoTrunc]”, the Kd with PCSK9 (Homo sapiens) [2] is > 300 nM.
For the sequence “TGCTACCGTTGTTTACCCTGCCACCTTCTGGAGTCCAGATGTAGGTAG [Evo5DNA-InvdT]”, the “functional effect of the aptamer” value in the data set on PCSK9 (Homo sapiens) [3] was “not active”.
